Laboratory results taken from article doi:10.1101/2025.07.16.665076.
Results are given in words; binding and its absence hold for the method and conditions named. Binding seen in cells or lysates may run through a third protein. A yes stands for co-enrichment or nearness to the bait. Other partners may have been found. Sequences can lack the tags named with a protein.

The chains behind the UniProt entries cited, without tags or fusion partners. Where a name states a change or a piece, a line headed by the entry shows the natural chain unless it says otherwise. Residues count along the entry.
UniProt Q3T0E5: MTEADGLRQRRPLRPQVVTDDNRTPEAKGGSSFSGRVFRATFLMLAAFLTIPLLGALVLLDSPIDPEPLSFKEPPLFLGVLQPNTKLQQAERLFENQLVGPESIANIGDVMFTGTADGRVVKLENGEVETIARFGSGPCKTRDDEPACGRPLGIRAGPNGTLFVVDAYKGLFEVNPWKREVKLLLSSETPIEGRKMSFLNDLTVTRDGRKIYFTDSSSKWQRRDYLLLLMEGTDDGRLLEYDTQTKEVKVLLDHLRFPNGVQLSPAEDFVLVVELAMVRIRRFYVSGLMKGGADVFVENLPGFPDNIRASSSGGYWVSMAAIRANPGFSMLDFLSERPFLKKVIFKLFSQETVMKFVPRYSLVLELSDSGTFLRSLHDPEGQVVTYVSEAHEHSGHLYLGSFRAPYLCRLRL
UniProt Q3SX14: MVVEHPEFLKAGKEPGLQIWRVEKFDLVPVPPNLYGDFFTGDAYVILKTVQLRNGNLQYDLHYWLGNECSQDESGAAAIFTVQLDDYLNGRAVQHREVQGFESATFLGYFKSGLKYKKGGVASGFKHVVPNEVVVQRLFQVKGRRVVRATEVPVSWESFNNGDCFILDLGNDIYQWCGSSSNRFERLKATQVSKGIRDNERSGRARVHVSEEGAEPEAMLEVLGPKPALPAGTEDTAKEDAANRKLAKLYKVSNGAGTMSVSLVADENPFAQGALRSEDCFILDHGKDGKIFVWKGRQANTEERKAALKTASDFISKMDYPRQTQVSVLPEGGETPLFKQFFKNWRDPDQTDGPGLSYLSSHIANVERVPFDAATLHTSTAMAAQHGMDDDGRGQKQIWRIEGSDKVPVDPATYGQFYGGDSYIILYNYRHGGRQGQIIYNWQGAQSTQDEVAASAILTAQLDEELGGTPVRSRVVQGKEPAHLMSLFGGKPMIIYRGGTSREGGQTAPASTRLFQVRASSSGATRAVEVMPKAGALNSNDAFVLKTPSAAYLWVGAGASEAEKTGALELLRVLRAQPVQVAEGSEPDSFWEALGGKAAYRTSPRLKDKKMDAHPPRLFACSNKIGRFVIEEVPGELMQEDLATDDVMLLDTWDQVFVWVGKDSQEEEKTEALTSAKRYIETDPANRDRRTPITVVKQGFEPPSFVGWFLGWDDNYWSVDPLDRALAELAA
UniProt Q3MHN2, residues 22-548: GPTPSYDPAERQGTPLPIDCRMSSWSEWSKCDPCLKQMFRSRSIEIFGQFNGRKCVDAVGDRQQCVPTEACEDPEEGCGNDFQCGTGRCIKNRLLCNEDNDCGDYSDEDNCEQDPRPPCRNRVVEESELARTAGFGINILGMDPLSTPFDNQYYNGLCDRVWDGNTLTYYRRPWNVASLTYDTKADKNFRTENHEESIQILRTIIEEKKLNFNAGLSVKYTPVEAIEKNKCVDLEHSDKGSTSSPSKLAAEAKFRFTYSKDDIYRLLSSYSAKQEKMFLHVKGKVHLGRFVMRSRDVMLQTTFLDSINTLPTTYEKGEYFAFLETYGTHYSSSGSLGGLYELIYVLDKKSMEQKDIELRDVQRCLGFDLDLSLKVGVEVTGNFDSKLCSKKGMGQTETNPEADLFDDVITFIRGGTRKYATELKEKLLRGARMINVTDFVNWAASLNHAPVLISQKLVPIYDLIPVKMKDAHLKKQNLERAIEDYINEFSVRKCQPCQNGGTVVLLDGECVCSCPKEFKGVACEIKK
UniProt P12763, residues 19-359: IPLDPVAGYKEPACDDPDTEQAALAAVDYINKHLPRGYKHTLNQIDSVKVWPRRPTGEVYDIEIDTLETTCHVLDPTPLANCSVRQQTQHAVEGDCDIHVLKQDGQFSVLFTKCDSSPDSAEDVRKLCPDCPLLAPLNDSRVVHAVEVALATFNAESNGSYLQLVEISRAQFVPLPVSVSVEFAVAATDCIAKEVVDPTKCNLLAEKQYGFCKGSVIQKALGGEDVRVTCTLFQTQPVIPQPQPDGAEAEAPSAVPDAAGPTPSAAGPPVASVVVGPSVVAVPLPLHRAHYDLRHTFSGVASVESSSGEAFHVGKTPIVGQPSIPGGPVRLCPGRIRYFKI

target: T1, His-ALFA-SAA1-N terminus (SAA1-N) (human) (UniProt P0DJI8); assay: affinity purification with mass spectrometry
T1 sequence: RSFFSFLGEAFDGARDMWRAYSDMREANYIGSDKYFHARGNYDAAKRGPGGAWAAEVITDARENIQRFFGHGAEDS

binding, binds:
APMAP (bovine plasma) (from UniProt Q3T0E5), GSN (bovine plasma) (from UniProt Q3SX14 1-731), C9 (bovine plasma) (from UniProt Q3MHN2 22-548), AHSG (bovine plasma) (from UniProt P12763 19-359), COL18A1 (bovine plasma), SERPIND1 (bovine plasma), SERPINA10 (bovine plasma), clusterin (bovine plasma), APOB (bovine plasma), COL6A3 (bovine plasma), VTN (bovine plasma)
